Results reported in the supplement of paper PMC10849652.
This is one part of the list.

Amino acid sequences for entries named in this document (tags omitted). A change or cut given only in a name is not applied to a line headed by its entry.
UniProt Q00535, whole entry, looked up: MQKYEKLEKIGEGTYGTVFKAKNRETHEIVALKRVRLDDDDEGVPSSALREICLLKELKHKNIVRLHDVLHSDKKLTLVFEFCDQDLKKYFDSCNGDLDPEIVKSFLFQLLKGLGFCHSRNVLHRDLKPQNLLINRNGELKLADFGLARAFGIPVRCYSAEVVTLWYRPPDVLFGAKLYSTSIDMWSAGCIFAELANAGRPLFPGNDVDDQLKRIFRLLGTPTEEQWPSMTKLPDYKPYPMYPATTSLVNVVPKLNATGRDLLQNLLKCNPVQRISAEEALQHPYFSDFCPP
UniProt Q9BYV8: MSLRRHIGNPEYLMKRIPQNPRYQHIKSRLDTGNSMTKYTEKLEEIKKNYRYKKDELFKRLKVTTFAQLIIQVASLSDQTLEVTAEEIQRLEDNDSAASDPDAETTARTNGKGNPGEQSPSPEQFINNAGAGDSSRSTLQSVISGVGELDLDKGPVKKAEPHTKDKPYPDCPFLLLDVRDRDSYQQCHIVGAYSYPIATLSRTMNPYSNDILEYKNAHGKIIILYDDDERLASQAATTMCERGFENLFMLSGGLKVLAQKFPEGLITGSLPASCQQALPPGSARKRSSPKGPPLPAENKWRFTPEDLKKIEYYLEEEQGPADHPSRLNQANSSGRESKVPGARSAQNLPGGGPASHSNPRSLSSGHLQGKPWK
UniProt Q9BUK0: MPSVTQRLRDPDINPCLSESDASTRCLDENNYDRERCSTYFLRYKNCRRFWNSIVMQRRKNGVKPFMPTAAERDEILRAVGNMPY
UniProt Q6ZU80: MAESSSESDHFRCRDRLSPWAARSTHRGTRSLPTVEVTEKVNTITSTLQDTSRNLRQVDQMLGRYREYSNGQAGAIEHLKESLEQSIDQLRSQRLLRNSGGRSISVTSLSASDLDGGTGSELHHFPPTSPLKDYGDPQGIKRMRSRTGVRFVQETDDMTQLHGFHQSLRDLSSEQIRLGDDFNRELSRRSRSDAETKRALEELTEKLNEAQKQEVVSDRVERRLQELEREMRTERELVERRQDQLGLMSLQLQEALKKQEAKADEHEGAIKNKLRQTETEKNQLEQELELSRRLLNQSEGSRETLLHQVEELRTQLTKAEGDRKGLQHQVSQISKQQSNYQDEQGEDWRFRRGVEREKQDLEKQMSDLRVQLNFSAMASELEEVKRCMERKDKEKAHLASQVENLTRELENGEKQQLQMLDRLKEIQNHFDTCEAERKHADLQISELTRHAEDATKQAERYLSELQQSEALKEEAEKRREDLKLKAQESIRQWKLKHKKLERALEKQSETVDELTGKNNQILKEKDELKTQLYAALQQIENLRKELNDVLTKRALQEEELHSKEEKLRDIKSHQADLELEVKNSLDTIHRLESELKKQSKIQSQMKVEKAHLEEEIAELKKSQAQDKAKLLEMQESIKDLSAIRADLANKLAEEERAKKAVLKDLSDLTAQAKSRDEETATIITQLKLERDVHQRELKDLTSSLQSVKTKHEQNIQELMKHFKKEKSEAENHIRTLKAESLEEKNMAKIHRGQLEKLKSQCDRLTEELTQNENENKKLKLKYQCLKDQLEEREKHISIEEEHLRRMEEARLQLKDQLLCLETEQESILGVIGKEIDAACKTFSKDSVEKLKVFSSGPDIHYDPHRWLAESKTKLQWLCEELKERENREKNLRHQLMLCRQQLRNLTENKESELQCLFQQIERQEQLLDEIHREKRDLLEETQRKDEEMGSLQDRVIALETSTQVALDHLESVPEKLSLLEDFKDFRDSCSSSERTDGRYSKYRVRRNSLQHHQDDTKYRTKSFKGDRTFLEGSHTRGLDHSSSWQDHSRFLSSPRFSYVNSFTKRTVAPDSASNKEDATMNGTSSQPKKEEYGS
UniProt P46527, whole entry, looked up: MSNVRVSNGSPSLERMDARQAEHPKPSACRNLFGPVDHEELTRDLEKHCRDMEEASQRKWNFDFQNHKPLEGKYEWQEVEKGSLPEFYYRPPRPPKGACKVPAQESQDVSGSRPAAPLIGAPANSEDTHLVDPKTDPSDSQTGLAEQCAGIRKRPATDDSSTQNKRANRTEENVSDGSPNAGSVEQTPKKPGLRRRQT
UniProt Q99459: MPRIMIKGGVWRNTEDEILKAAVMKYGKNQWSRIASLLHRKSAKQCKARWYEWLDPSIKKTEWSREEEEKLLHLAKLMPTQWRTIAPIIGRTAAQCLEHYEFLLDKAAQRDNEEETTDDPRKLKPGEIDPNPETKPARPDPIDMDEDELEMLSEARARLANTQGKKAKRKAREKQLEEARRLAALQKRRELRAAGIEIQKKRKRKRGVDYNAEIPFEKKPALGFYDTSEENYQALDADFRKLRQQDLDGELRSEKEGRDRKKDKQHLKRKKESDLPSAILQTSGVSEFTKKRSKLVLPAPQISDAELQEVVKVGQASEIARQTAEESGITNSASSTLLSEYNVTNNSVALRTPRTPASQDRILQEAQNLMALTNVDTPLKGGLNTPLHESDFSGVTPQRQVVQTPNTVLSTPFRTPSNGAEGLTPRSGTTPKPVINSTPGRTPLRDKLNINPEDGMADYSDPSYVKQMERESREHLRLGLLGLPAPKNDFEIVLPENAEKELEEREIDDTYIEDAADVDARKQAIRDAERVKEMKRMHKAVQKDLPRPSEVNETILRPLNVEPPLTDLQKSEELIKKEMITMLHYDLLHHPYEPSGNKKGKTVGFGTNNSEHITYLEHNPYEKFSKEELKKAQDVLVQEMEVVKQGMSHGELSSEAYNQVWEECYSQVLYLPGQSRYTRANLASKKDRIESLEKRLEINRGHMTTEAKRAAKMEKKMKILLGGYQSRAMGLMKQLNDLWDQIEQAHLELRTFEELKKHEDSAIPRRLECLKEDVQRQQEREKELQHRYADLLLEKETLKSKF
UniProt P24386: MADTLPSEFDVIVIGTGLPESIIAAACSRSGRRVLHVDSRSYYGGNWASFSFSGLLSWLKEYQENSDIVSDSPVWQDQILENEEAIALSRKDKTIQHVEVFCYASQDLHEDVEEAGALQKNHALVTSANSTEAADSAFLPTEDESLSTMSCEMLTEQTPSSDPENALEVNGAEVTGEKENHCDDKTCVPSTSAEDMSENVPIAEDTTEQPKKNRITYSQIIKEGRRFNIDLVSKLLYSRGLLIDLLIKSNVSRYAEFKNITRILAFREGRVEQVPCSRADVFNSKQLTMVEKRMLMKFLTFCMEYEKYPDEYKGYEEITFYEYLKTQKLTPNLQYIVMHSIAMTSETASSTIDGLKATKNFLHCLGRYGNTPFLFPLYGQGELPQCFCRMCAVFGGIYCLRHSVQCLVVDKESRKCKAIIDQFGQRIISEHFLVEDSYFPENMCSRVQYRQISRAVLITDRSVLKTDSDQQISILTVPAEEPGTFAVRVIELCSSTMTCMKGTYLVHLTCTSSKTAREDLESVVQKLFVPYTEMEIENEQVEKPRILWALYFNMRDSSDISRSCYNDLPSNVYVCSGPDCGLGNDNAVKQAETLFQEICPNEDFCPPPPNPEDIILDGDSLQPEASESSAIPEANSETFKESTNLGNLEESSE
UniProt Q13111, whole entry, looked up: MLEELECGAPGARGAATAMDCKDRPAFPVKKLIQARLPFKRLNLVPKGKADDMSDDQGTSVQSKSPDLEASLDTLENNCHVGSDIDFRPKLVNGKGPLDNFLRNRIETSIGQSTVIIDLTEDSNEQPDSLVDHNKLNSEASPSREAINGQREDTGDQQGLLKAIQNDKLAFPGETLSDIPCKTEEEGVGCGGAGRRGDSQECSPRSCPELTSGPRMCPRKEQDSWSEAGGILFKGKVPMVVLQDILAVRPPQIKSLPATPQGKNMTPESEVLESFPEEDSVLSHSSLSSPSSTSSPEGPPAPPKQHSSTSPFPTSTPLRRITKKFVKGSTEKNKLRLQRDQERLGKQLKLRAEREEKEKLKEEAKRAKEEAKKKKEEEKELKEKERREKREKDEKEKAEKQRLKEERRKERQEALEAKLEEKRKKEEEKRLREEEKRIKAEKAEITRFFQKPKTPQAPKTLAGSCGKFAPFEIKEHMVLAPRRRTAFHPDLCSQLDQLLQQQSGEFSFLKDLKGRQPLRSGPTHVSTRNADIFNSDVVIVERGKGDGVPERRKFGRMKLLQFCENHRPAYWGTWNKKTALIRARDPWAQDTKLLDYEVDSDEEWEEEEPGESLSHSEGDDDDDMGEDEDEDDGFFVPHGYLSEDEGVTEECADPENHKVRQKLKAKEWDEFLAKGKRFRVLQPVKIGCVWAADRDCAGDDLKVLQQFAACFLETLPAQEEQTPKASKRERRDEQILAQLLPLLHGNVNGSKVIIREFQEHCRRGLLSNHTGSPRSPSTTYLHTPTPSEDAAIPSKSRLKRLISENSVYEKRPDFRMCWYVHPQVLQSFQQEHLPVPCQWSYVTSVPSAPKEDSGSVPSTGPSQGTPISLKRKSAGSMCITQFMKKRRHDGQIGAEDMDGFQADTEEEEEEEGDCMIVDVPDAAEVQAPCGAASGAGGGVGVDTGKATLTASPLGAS
UniProt Q8IW35: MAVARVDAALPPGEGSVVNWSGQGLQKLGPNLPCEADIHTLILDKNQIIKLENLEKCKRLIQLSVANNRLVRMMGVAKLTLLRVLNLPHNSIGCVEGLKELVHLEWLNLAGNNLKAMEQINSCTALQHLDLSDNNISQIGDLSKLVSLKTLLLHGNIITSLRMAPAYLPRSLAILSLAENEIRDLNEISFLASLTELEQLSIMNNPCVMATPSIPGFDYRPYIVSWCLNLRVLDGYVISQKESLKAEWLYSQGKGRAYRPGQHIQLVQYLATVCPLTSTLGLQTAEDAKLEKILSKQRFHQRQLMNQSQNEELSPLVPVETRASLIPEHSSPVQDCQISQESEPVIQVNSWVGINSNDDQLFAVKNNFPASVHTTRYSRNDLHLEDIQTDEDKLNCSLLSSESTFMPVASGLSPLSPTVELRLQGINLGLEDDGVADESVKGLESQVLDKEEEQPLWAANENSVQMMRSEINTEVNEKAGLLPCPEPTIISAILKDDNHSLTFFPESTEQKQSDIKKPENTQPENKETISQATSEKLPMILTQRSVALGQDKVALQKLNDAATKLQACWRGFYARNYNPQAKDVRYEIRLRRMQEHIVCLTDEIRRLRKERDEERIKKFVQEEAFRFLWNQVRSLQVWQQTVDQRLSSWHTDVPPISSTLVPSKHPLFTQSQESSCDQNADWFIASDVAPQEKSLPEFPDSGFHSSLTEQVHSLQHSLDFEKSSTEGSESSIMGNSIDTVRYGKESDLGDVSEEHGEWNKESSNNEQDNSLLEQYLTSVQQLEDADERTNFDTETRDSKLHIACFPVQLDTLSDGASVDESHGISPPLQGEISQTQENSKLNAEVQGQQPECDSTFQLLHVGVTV
UniProt Q00537: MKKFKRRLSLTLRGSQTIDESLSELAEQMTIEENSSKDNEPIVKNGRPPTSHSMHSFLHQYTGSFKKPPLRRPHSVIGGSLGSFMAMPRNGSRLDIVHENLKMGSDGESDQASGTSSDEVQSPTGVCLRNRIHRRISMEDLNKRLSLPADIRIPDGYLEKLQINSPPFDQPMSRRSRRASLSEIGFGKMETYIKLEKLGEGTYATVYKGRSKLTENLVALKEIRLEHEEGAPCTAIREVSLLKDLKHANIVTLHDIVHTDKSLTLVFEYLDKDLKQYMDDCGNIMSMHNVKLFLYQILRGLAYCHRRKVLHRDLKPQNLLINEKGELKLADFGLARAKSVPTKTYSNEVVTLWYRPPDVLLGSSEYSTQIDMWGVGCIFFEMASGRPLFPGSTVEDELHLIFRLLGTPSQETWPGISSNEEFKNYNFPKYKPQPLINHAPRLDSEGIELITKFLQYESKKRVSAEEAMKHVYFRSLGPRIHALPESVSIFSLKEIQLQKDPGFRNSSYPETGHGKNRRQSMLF
UniProt Q7Z7K6: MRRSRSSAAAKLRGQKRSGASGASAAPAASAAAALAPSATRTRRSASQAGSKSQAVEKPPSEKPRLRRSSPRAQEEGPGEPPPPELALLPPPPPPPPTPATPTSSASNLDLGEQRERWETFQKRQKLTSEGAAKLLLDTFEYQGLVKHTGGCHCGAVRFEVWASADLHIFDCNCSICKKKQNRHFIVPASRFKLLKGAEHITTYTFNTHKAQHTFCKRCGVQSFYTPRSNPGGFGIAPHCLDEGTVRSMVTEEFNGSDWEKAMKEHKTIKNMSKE
UniProt Q86X02: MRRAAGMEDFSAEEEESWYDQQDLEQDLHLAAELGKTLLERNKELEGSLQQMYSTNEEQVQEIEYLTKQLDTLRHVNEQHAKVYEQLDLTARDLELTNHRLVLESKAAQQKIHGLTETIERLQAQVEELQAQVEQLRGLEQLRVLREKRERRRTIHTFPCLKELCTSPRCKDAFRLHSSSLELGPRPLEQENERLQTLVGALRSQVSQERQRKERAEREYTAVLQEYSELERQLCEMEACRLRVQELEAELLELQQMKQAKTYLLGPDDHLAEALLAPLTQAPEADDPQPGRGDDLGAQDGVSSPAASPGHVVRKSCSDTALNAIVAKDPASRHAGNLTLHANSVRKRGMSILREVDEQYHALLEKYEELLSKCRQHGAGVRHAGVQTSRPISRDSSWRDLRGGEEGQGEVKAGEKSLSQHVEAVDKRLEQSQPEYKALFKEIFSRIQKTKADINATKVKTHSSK

What was measured:
Assay in all cases: log2 fold change, soluble protein after heating vs DMSO (PISA); higher = thermal stabilisation; K562 cells, 10 uM, 30 min; active = over 0.2 and 3.5 SD of the protein, either way, in both replicates (recomputed)
[1] = compound: CC1=C(C=C(C=C1)NC(=O)C2=CC(=CC=C2)C(C)(C)C#N)NC3=CC4=C(C=C3)N=CN(C4=O)C
Method in brief: (§1)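 Thermal stability values are relative to control samples and come from duplicates. They are expressed as log2 fold changes. For measurement, K562 cells (2×10^6 cells/mL) received 10 μM compound for 30 min, and aliquots were heated for 3 min over 48°C-58°C, pooled, and extracted at 4°C in PBS with 0.5% NP-40. Soluble protein, the supernatant after 21,000xg for 90 min, was quantified by TMTpro 16plex LC-MS/MS with equalised channel sums.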

[2] = compound: CC1=C(C=C(C=C1)NC(=O)C2=CC(=CC=C2)N(C)C)NC(=O)C3=CC=C(C=C3)O
Method in brief: as §1

[3] = compound: CC1=CC=C(C=C1)SC2=C3C=C(SC3=CN=C2)C(=O)N
Method in brief: as §1

[4] = compound: CC1=NC(=CC=C1)C2=C(N=C(N2)C(C)(C)C)C3=CC4=NC=CN=C4C=C3
Method in brief: as §1

[5] = compound: CCCCN(Cc1ccc(C(=O)NO)cc1)C(=O)Nc1ccccc1 [Nexturastat A]
Method in brief: as §1

[6] = compound: CCCS(=O)(=O)Nc1ccc(F)c(C(=O)c2c[nH]c3ncc(-c4ccc(Cl)cc4)cc23)c1F [vemurafenib]
Method in brief: as §1

[7] = compound: CCCS(=O)(=O)Nc1ccc(F)c(C(=O)c2c[nH]c3ncc(Cl)cc23)c1F
Method in brief: as §1

[8] = compound: CCCc1cc(C)[nH]c(=O)c1CNC(=O)c1cc(-c2ccnc(N3CCN(C)CC3)c2)cc2c1cnn2C(C)C
Method in brief: as §1

[9] = compound: CCN(CC)Cc1ccc2cc(COC(=O)Nc3ccc(C(=O)NO)cc3)ccc2c1 [givinostat]
Method in brief: as §1

[10] = compound: CC[C@@H]1C(=O)N(C)c2cnc(Nc3ccc(C(=O)NC4CCN(C)CC4)cc3OC)nc2N1C1CCCC1
Method in brief: as §1

[11] = compound: CC[C@@H]1C(=O)N(C)c2cnc(Nc3ccc(C(=O)N[C@H]4CC[C@H](N5CCN(CC6CC6)CC5)CC4)cc3OC)nc2N1C(C)C [volasertib]
Method in brief: as §1

[12] = compound: CC[C@H](C)N1C=C(C2=C(C=C(C=C21)C3=CN=C(C=C3)N4CCNCC4)C(=O)NCC5=C(C=C(NC5=O)C)C)C
Method in brief: as §1

[13] = compound: CC[C@H](C)[C@@H](C(=O)N[C@@H]([C@@H](C)O)C(=O)N[C@@H](CC(C)C)C(=O)[C@]1(CO1)C)NC(=O)[C@H]([C@@H](C)CC)N(C)C(=O)C [epoxomicin]
Method in brief: as §1

[14] = compound: CCn1cc(-c2ccnc3[nH]c(-c4cccc(CN(C)C)c4)cc23)c(-c2ccc(NC(=O)N(C)C)cc2)n1
Method in brief: as §1

[15] = compound: CN(C)CC(=O)Nc1ccc2[nH]c(=O)c3ccccc3c2c1
Method in brief: as §1

[16] = compound: CN1C2=C(C3=C1C(=O)N(N=C3)CC4=CC(=CC=C4)N)SC(=C2)S(=O)C
Method in brief: as §1

[17] = compound: CN1CCC(CNc2ccc3ncc(-c4cccc(OC(F)(F)F)c4)n3n2)CC1
Method in brief: as §1

[18] = compound: CCn1c(C(=O)N(C2CC2)C2CC2)cc2c3c(ncn3C)c(Nc3cc(C)n(C)n3)nc21
Method in brief: as §1

[19] = compound: CCN(CCCOc1ccc2c(Nc3cc(CC(=O)Nc4cccc(F)c4)[nH]n3)ncnc2c1)CCOP(=O)(O)O [barasertib]
Method in brief: as §1

[20] = compound: CN(CCOC1=CC=C(C=C1)C[C@H]2C(=O)NC(=O)S2)C3=CC=CC=N3 (racemic) [rosiglitazone]
Method in brief: as §1

Measured: log2 fold change

CDK5 (UniProt Q00535)
inactive: [1] -0.053 | [2] -0.009 | [3] 0.001 | [4] -0.008 | [5] -0.002 | [6] 0.031 | [7] 0.058 | [8] 0.078 | [9] 0.003 | [10] -0.087 | [12] 0.095 | [13] 0 | [14] -0.039 | [15] 0.002 | [16] -0.014 | [17] 0.025
active: [11] -0.259

CEP41 (UniProt Q9BYV8)
inactive: [1] -0.381 | [4] 0.166 | [9] 0.191 | [10] -0.073 | [18] 0.14

CHCHD7 isoform 4 (UniProt Q9BUK0)
inactive: [1] -0.034 | [2] -0.051 | [3] 0.051 | [4] 0.011 | [6] -0.17 | [7] 0.109 | [8] -0.133 | [9] -0.062 | [19] -0.138 | [10] -0.056 | [11] -0.072 | [12] -0.126 | [18] -0.03 | [14] 0.104 | [15] 0.026 | [20] 0.103 | [16] -0.123 | [17] -0.013

CEP128 (UniProt Q6ZU80)
inactive: [1] -0.043 | [3] 0.006 | [4] -0.188 | [6] -0.1 | [7] -0.118 | [8] -0.422 | [19] 0.098 | [10] -0.009 | [11] -0.09 | [15] -0.11 | [16] 0.039

CEP170B (UniProt Q9Y4F5)
inactive: [1] -0.043 | [2] -0.013 | [4] -0.01 | [5] 0.041 | [6] -0.049 | [8] 0.041 | [19] 0.027 | [10] 0.095 | [13] -0.135 | [14] 0.143 | [15] -0.006 | [20] -0.039 | [16] 0.111 | [17] -0.078

CDKN1B (UniProt P46527)
inactive: [1] -0.016 | [2] -0.009 | [3] -0.026 | [4] 0 | [5] 0.148 | [6] -0.176 | [7] -0.048 | [8] 0.057 | [9] 0.051 | [19] -0.063 | [11] 0.028 | [12] -0.083 | [13] 0.393 | [14] 0.036 | [15] 0.025 | [16] 0.06 | [17] 0.073

CDC5L (UniProt Q99459)
inactive: [1] -0.115 | [2] -0.008 | [4] -0.125 | [6] -0.074 | [8] 0.063 | [9] 0.247 | [10] -0.063 | [18] -0.355 | [14] 0.143 | [15] -0.03 | [16] 0.085 | [17] -0.17

CHM (UniProt P24386)
inactive: [1] 0.234 | [2] -0.034 | [3] -0.032 | [4] -0.268 | [5] 0.096 | [6] -0.064 | [7] -0.076 | [8] -0.089 | [9] 0.014 | [10] -0.004 | [11] -0.113 | [13] -0.022 | [18] -0.051 | [14] 0.079 | [15] 0.033 | [16] -0.023 | [17] 0.023

CHAF1A (UniProt Q13111)
inactive: [1] 0.035 | [2] -0.054 | [3] 0.087 | [4] -0.116 | [5] 0.088 | [7] 0.026 | [8] -0.097 | [9] 0.149 | [19] 0.107 | [10] 0.025 | [11] -0.021 | [12] 0.036 | [13] -0.039 | [14] 0.064 | [16] 0.158 | [17] 0.051

CEP97 isoform 2 (UniProt Q8IW35)
inactive: [1] 0.032 | [2] -0.062 | [3] -0.041 | [4] -0.058 | [5] 0.032 | [6] 0.069 | [7] 0.012 | [9] -0.018 | [10] -0.021 | [11] -0.258 | [12] 0.044 | [13] -0.071 | [18] -0.041 | [15] 0.104 | [16] 0.148

CEP350 (UniProt Q5VT06)
inactive: [1] 0.02 | [2] 0.009 | [3] 0.114 | [4] -0.153 | [5] -0.173 | [7] 0.076 | [8] 0.118 | [10] 0.039 | [11] -0.201 | [12] 0.097 | [13] -0.049 | [14] 0.056 | [16] 0.145 | [17] 0.13

Two successive records from above, quoted:
CEP97 isoform 2 (UniProt Q8IW35)
inactive: [1] 0.032 | [2] -0.062 | [3] -0.041 | [4] -0.058 | [5] 0.032 | [6] 0.069 | [7] 0.012 | [9] -0.018 | [10] -0.021 | [11] -0.258 | [12] 0.044 | [13] -0.071 | [18] -0.041 | [15] 0.104 | [16] 0.148

CEP350 (UniProt Q5VT06)
inactive: [1] 0.02 | [2] 0.009 | [3] 0.114 | [4] -0.153 | [5] -0.173 | [7] 0.076 | [8] 0.118 | [10] 0.039 | [11] -0.201 | [12] 0.097 | [13] -0.049 | [14] 0.056 | [16] 0.145 | [17] 0.13

Remaining list, next part:

CEP152 (UniProt O94986)
inactive: [1] -0.135 | [2] 0.085 | [3] -0.029 | [4] -0.097 | [6] -0.156 | [7] -0.011 | [8] 0.105 | [9] 0.313 | [19] 0 | [10] -0.17 | [11] -0.107 | [12] -0.296 | [18] -0.078 | [14] -0.026 | [15] -0.094 | [20] 0.157 | [17] -0.407

CDK17 isoform 2 (UniProt Q00537)
inactive: [1] 0.105 | [3] 0.061 | [4] -0.051 | [5] 0.172 | [6] -0.098 | [7] -0.085 | [8] 0.042 | [9] 0.003 | [19] 0.055 | [10] -0.153 | [11] -0.079 | [13] 0.07 | [14] -0.012 | [15] 0.046 | [16] 0.022 | [17] 0.051

CENPV (UniProt Q7Z7K6)
inactive: [1] -0.088 | [2] 0.019 | [3] 0.099 | [5] 0.435 | [7] -0.125 | [11] -0.051 | [13] -0.162 | [14] 0.117 | [17] 0.406

CDR2L (UniProt Q86X02)
inactive: [2] -0.005 | [6] -0.068 | [9] -0.015 | [10] -0.168 | [18] -0.052 | [14] -0.072 | [15] 0.052 | [16] -0.034 | [17] 0.03
